Further values from the same series stand in other lists.
System: intracellular N. gonorrhoeae
Test: Intracellular killing in HeLa229 cells
Assay type: cell-based, Neisseria gonorrhoeae
Conditions: isolate NCTC 13820; 24 hr; 8X MIC; dilution 0; replicates 1-3, counts 1-2
Description: Intracellular killing was assessed within HeLa229 cells (European Collection of Authenticated Cell Cultures, London, UK) that were seeded at ~3 × 10^5 cells/mL and grown to 70–80% confluence in RPMI-glutamine media supplemented with 10% (v/v) heat-inactivated fetal bovine serum (FBS, Gibco, MA, USA). Cells were incubated at 37 °C with 5% CO2 for 24 h, then washed with serum-free RPMI-1640 prior to infection. N. gonorrhoeae was scraped from agar plates and resuspended in Dulbecco’s Phosphate Buffered Saline (DPBS, Sigma-Aldrich), pelleted, then resuspended in RPMI with 2% FBS. Bacterial suspensions were used to infect HeLa229 cells at a multiplicity of infection of 100:1. Plates were briefly centrifuged (500 × g for 5 min), then incubated for one hour. This incubation and all subsequent incubations were performed at 37 °C with 5% CO2. Non-adherent cells were removed by washing with serum-free RPMI, and the remaining extracellular bacteria were killed via resuspension in RPMI-glutamine supplemented with 2% FBS and 200 μg/mL gentamycin and incubation for one hour. […] Azithromycin-treated samples were included for control/comparison. […] Samples were diluted and plated onto chocolate II agar for viable bacteria quantification. Intracellular killing assays were performed at Microbiologics, Kalamazoo, MI, USA, using a method adapted from previous studies[68],[69].

## Cc1c(CN(C)C(=O)/C=C/c2cnc3c(c2)N[C@H](C)[C@H](O)C(=O)N3)oc2ccccc12 [Debio 1453]
  Colony forming units (CFU) of N. gonorrhoeae internalised in HeLa229 cells, colony count: 0 CFU

From publication PMC12446476 (Nature Communications, 2025)
